{
  "source": "patent US20130330412A1",
  "about": "“SMART POLYMERIC NANOPARTICLES WHICH OVERCOME MULTIDRUG RESISTANCE TO CANCER THERAPEUTICS AND TREATMENT-RELATED SYSTEMIC TOXICITY” (THE JOHNS HOPKINS UNIVERSITY, priority 2010, published 2013)",
  "test_system": "C57BL/6 wild-type mice",
  "assay": "Body weight and heart weight in cardiotoxicity study (FIG. 16c)",
  "format": "in vivo",
  "settings": "9 mg/kg DOX equivalent i.v. once weekly for 4 weeks",
  "note": "Some results were stated once for a whole list of compounds, not compound by compound.",
  "data": [
    {"smiles": "COc1cccc2c1C(=O)c1c(O)c3c(c(O)c1C2=O)C[C@@](O)(C(=O)CO)C[C@@H]3O[C@H]1C[C@H](N)[C@H](O)[C@H](C)O1", "note": "[DOX, doxorubicin]", "values": [
      {"measurement": "reduction of heart weight", "value": "more than 40%"},
      {"measurement": "reduction of mouse body weight", "value": "more than 40%"}
    ]}
  ]
}
